Values from PubChem BioAssay AID1259425 (University of Nebraska Medical Center, 2018)

Assay: 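Compare each knockdown with KSR1 silencing using changes in marker transcripts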 (primary screen)
Cells: HCT116 human colon cancer cells
Reagents: siRNA pool against human genes, 50 nM siRNA
Read-out: 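mRNA of six signature genes measured together by branched-DNA assay after 50 nM siRNA pool, blank removed, divided by geometric mean of two housekeeping genes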
Scale: BNIP3L mRNA: higher = more BNIP3L transcript after knockdown; NDRG1 mRNA: higher = more NDRG1 transcript after knockdown; BNIP3 mRNA: higher = more BNIP3 transcript after knockdown; ALDOC mRNA: higher = more ALDOC transcript after knockdown; ACSL5 mRNA: higher = more ACSL5 transcript after knockdown
Here is one part, drawn at random, of about 14,000 deposited reagents. The record does not give: the time to read-out.

target | BNIP3L mRNA, set 1 | NDRG1 mRNA, set 1 | BNIP3 mRNA, set 1 | ALDOC mRNA, set 1 | ACSL5 mRNA, set 1
UGT2B4 (UDP glucuronosyltransferase family 2 member B4) | 0.0802 | 0.111 | 0.231 | 0.0135 | 0.109
LSM2 | 0.167 | 0.405 | 0.215 | 0.0373 | 0.203
FGF7 (fibroblast growth factor 7) | 0.0357 | 0.127 | 0.22 | 0.0107 | 0.119
FAT4 (FAT atypical cadherin 4) | 0.239 | 0.258 | 0.458 | 0.0527 | 0.175
IFRD2 (interferon related developmental regulator 2) | 0.0916 | 0.127 | 0.293 | 0.0423 | 0.0988
NBPF14 (NBPF member 14) | 0.114 | 0.188 | 0.468 | 0.0284 | 0.187
TMEM100 (transmembrane protein 100) | 0.13 | 0.145 | 0.334 | 0.0299 | 0.141
GYPA (glycophorin A (MNS blood group)) | 0.0982 | 0.132 | 0.208 | 0.00836 | 0.141
GDAP1 (ganglioside induced differentiation associated protein 1) | 0.115 | 0.134 | 0.403 | 0.0204 | 0.0523
SRGAP1 (SLIT-ROBO Rho GTPase activating protein 1) | 0.107 | 0.14 | 0.237 | 0.0199 | 0.153
SERTAD1 (SERTA domain containing 1) | 0.071 | 0.271 | 0.202 | 0.016 | 0.207
CHCHD2 (coiled-coil-helix-coiled-coil-helix domain containing 2) | 0.155 | 0.0656 | 0.231 | 0.011 | 0.11
HMGCLL1 (3-hydroxy-3-methylglutaryl-CoA lyase like 1) | 0.0893 | 0.224 | 0.278 | 0.0277 | 0.202
MCM4 (minichromosome maintenance complex component 4) | 0.0621 | 0.0494 | 0.18 | 0.0187 | 0.113
SNX16 (sorting nexin 16) | 0.123 | 0.542 | 0.433 | 0.0214 | 0.222
MRGPRX1 (MAS related GPR family member X1) | 0.258 | 0.308 | 0.605 | 0.0616 | 0.26
TIMM23B (translocase of inner mitochondrial membrane 23 homolog B) | 0.138 | 0.212 | 0.519 | 0.00236 | 0.283
SAMD9L (sterile alpha motif domain containing 9 like) | 0.0789 | 0.0539 | 0.354 | 0.0135 | 0.133
FBXO7 (F-box protein 7) | 0.075 | 0.213 | 0.211 | 0.0306 | 0.173
GNAI1 (G protein subunit alpha i1) | 0.107 | 0.367 | 0.597 | 0.0702 | 0.345
NPTN (neuroplastin) | 0.0589 | 0.139 | 0.301 | 0.0279 | 0.148
PPT1 (palmitoyl-protein thioesterase 1) | 0.12 | 0.112 | 0.272 | 0.0243 | 0.0934
FRS3 (fibroblast growth factor receptor substrate 3) | 0.119 | 0.121 | 0.2 | 0.0198 | 0.0996
CPA2 (carboxypeptidase A2) | 0.0937 | 0.139 | 0.276 | 0.00457 | 0.258
SDCBP (syndecan binding protein) | 0.192 | 0.105 | 0.279 | 0.0309 | 0.175
ANKMY1 (ankyrin repeat and MYND domain containing 1) | 0.103 | 0.0491 | 0.534 | 0.0143 | 0.112
NEUROD1 (neuronal differentiation 1) | 0.0601 | 0.0865 | 0.246 | 0.00526 | 0.164
NOL11 (nucleolar protein 11) | 0.242 | 2.07 | 0.871 | 0.0261 | 0.681
CPAP (centrosome assembly and centriole elongation protein) | 0.21 | 0.68 | 0.457 | 0.0384 | 0.282
MTRF1 (mitochondrial translation release factor 1) | 0.123 | 0.134 | 0.291 | 0.0202 | 0.365
CACNG7 (calcium voltage-gated channel auxiliary subunit gamma 7) | 0.12 | 0.214 | 0.115 | 0.0102 | 0.131
TAS2R7 (taste 2 receptor member 7) | 0.199 | 0.379 | 0.252 | 0.0563 | 0.212
OXR1 (oxidation resistance 1) | 0.0909 | 0.163 | 0.284 | 0.0302 | 0.17
ZCCHC8 (zinc finger CCHC-type containing 8) | 0.091 | 0.159 | 0.277 | 0.0244 | 0.165
